Results are given in words; binding and its absence hold for the method and conditions named. Binding seen in cells or lysates may run through a third protein. Some entries that bind do so weakly or less than the wild type.
Biological target: protein kinase C delta (PKC-δ) (human (endogenous in SHSY5Y)) (UniProt Q05655)
Assay: co-IP; whole cell lysates of SHSY5Y cells (control, OGD/R, OGD/R with 2.5 μM C+P; 6 and 24 hours of reoxygenation); anti-PKC-δ or control IgG overnight at 4°C, protein G magnetic beads; Western blot for PKC-δ and p47phox

Amino acid sequences for entries named in this document (tags omitted). A change or cut given only in a name is not applied to a line headed by its entry.
UniProt Q05655: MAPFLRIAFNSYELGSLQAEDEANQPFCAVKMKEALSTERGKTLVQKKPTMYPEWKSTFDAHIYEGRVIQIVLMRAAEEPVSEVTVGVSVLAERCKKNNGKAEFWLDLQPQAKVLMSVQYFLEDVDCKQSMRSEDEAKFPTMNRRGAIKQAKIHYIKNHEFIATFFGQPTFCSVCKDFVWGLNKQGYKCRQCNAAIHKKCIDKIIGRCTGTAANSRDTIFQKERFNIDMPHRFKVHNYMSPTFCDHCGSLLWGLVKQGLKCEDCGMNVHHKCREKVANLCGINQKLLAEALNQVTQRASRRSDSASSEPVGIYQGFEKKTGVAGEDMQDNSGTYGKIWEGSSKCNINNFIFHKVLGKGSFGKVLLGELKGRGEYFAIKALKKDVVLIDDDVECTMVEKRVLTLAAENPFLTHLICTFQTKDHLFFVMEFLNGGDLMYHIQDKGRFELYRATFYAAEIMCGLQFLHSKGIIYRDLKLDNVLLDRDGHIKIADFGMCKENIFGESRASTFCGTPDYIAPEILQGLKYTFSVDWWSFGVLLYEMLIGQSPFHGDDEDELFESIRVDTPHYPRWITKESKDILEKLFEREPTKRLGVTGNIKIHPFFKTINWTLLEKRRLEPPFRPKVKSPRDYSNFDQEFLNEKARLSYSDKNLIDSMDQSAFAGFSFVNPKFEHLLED
UniProt P14598: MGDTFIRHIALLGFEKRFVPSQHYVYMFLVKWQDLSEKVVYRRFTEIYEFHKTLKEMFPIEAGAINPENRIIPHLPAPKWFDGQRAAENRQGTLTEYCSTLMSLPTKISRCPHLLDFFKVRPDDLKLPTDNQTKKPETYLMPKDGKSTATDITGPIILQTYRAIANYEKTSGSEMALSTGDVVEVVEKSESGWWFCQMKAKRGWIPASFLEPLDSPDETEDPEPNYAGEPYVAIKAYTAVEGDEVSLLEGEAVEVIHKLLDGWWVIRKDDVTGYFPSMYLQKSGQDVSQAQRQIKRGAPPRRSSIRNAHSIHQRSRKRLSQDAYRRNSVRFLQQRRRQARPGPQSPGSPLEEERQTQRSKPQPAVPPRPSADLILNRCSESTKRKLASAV

Substance: p47phox (NADPH oxidase subunit) (from UniProt P14598 1-390)
- binding: binds
